# Test results taken from the supplement of paper PMC8728848.
# This is one part of the list.
# B1: SynCAM (Mus musculus) (protein)
# chain: MASAVLPSGSQCAAAAAVAAAAAPPGLRLRLLLLLLSAAALIPTGDGQNLFTKDVTVIEGEVATISCQVNKSDDSVIQLLNPNRQTIYFRDFRPLKDSRFQLLNFSSSELKVSLTNVSISDEGRYFCQLYTDPPQESYTTITVLVPPRNLMIDIQKDTAVEGEEIEVNCTAMASKPATTIRWFKGNKELKGKSEVEEWSDMYTVTSQLMLKVHKEDDGVPVICQVEHPAVTGNLQTQRYLEVQYKPQVHIQMTYPLQGLTREGDAFELTCEAIGKPQPVMVTWVRVDDEMPQHAVLSGPNLFINNLNKTDNGTYRCEASNIVGKAHSDYMLYVYDPPTTIPPP
# Key:
# Assay in all cases: glycan array binding signal (z-score within array); higher = stronger binding
# Details in all cases: glycan notation: IUPAC condensed, linker removed
# [1] = molecular target: Neu5Ac(a2-3)Gal(b1-4)GlcNAc(b1-6)GalNAc
# Method in brief: (§1)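 The binding signal is a Z-score computed within each array. Data were drawn from 3228 arrays in the Consortium for Functional Glycomics database, restricted to those with a known protein sequence. Scores were averaged over arrays of the same protein sequence at different concentrations or buffers, and over linkers, and negative values can be taken as non-binding.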
# [2] = molecular target: Neu5Ac(a2-3)Gal(b1-4)GlcNAc(b1-6)[Gal(b1-3)]GalNAc
# Method in brief: as §1
# [3] = molecular target: Neu5Ac(a2-3)Gal(b1-4)GlcNAc(b1-6)[Neu5Ac(a2-3)Gal(b1-3)]GalNAc
# Method in brief: as §1
# [4] = molecular target: Neu5Ac(a2-3)Gal(b1-4)GlcNAc6S
# Method in brief: as §1
# [5] = molecular target: Neu5Ac(a2-3)Gal(b1-4)[Fuc(a1-3)]GlcNAc
# Method in brief: as §1
# [6] = molecular target: Neu5Ac(a2-3)Gal(b1-4)[Fuc(a1-3)]GlcNAc(b1-2)Man
# Method in brief: as §1
# [7] = molecular target: Neu5Ac(a2-3)Gal(b1-4)[Fuc(a1-3)]GlcNAc(b1-3)Gal
# Method in brief: as §1
# [8] = molecular target: Neu5Ac(a2-3)Gal(b1-4)[Fuc(a1-3)]GlcNAc(b1-3)Gal(b1-4)GlcNAc
# Method in brief: as §1
# [9] = molecular target: Neu5Ac(a2-3)Gal(b1-4)[Fuc(a1-3)]GlcNAc(b1-3)Gal(b1-4)[Fuc(a1-3)]GlcNAc(b1-3)Gal(b1-4)[Fuc(a1-3)]GlcNAc
# Method in brief: as §1
# [10] = molecular target: Neu5Ac(a2-3)Gal(b1-4)[Fuc(a1-3)]GlcNAc(b1-3)GalNAc
# Method in brief: as §1
# [11] = molecular target: Neu5Ac(a2-3)Gal(b1-4)[Fuc(a1-3)]GlcNAc(b1-6)[Gal(b1-3)]GalNAc
# Method in brief: as §1
# [12] = molecular target: Neu5Ac(a2-3)Gal(b1-4)[Fuc(a1-3)]GlcNAc(b1-6)[Neu5Ac(a2-3)Gal(b1-3)]GalNAc
# Method in brief: as §1
# [13] = molecular target: Neu5Ac(a2-3)Gal(b1-4)[Fuc(a1-3)]GlcNAc6S
# Method in brief: as §1
# [14] = molecular target: Neu5Ac(a2-3)Gal6S(b1-4)GlcNAc
# Method in brief: as §1
# [15] = molecular target: Neu5Ac(a2-3)Gal6S(b1-4)[Fuc(a1-3)]GlcNAc
# Method in brief: as §1
# [16] = molecular target: Neu5Ac(a2-3)GalNAc
# Method in brief: as §1
# [17] = molecular target: Neu5Ac(a2-3)GalNAc(b1-4)GlcNAc
# Method in brief: as §1
# [18] = molecular target: Neu5Ac(a2-3)[GalNAc(b1-4)]Gal(b1-4)Glc
# Method in brief: as §1
# [19] = molecular target: Neu5Ac(a2-3)[GalNAc(b1-4)]Gal(b1-4)GlcNAc
# Method in brief: as §1
# [20] = molecular target: Neu5Ac(a2-3)[GalNAc(b1-4)]Gal(b1-4)GlcNAc(b1-3)GalNAc
# Method in brief: as §1
# [21] = molecular target: Neu5Ac(a2-3)[Neu5Ac(a2-6)]GalNAc
# Method in brief: as §1
# [22] = molecular target: Neu5Ac(a2-6)Gal
# Method in brief: as §1
# [23] = molecular target: Neu5Ac(a2-6)Gal(b1-3)GlcNAc(b1-3)[Gal(b1-4)GlcNAc(b1-6)]Gal(b1-4)Glc
# Method in brief: as §1
# [24] = molecular target: Neu5Ac(a2-6)Gal(b1-4)Glc
# Method in brief: as §1
# [25] = molecular target: Neu5Ac(a2-6)Gal(b1-4)GlcNAc
# Method in brief: as §1
# [26] = molecular target: Neu5Ac(a2-6)Gal(b1-4)GlcNAc(b1-2)Man
# Method in brief: as §1
# [27] = molecular target: Neu5Ac(a2-6)Gal(b1-4)GlcNAc(b1-2)Man(a1-3)Man(b1-4)GlcNAc(b1-4)GlcNAc
# Method in brief: as §1
# [28] = molecular target: Neu5Ac(a2-6)Gal(b1-4)GlcNAc(b1-2)Man(a1-3)[Gal(b1-4)GlcNAc(b1-2)Man(a1-6)]Man(b1-4)GlcNAc(b1-4)GlcNAc
# Method in brief: as §1
# [29] = molecular target: Neu5Ac(a2-6)Gal(b1-4)GlcNAc(b1-2)Man(a1-3)[GlcNAc(b1-2)Man(a1-6)]Man(b1-4)GlcNAc(b1-4)GlcNAc
# Method in brief: as §1
# [30] = molecular target: Neu5Ac(a2-6)Gal(b1-4)GlcNAc(b1-2)Man(a1-3)[GlcNAc(b1-4)][Neu5Ac(a2-6)Gal(b1-4)GlcNAc(b1-2)Man(a1-6)]Man(b1-4)GlcNAc(b1-4)GlcNAc
# Method in brief: as §1
# [31] = molecular target: Neu5Ac(a2-6)Gal(b1-4)GlcNAc(b1-2)Man(a1-3)[Man(a1-6)]Man(b1-4)GlcNAc(b1-4)GlcNAc
# Method in brief: as §1
binder,measurement,setting,value
B1,glycan array binding signal (z-score),[1],0.475
same,glycan array binding signal (z-score),[2],-0.051
same,glycan array binding signal (z-score),[3],-1.12
same,glycan array binding signal (z-score),[4],-0.022
same,glycan array binding signal (z-score),[5],-0.809
same,glycan array binding signal (z-score),[6],3.11
same,glycan array binding signal (z-score),[7],-1.35
same,glycan array binding signal (z-score),[8],0.475
same,glycan array binding signal (z-score),[9],0.234
same,glycan array binding signal (z-score),[10],0.588
same,glycan array binding signal (z-score),[11],-0.494
same,glycan array binding signal (z-score),[12],0.098
same,glycan array binding signal (z-score),[13],-0.066
same,glycan array binding signal (z-score),[14],1.57
same,glycan array binding signal (z-score),[15],0.194
same,glycan array binding signal (z-score),[16],-0.47
same,glycan array binding signal (z-score),[17],-0.627
same,glycan array binding signal (z-score),[18],-0.816
same,glycan array binding signal (z-score),[19],-0.983
same,glycan array binding signal (z-score),[20],-0.017
same,glycan array binding signal (z-score),[21],-0.852
same,glycan array binding signal (z-score),[22],-0.247
same,glycan array binding signal (z-score),[23],-0.338
same,glycan array binding signal (z-score),[24],-0.264
same,glycan array binding signal (z-score),[25],-0.424
same,glycan array binding signal (z-score),[26],-0.07
same,glycan array binding signal (z-score),[27],-1.36
same,glycan array binding signal (z-score),[28],-0.518
same,glycan array binding signal (z-score),[29],-0.63
same,glycan array binding signal (z-score),[30],-1.12
same,glycan array binding signal (z-score),[31],-0.096
